Experimental data published in the supplement of paper PMC4604168 (melanoma cell lines).
The list shows a part of the results. Single values are uncertain, as repeats are few or missing.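 The apoptosis fraction was the count of cleaved-PARP antibody-stained nuclei relative to all DNA-stained nuclei, imaged in 1,536-well plates. Screening doses were set so most cells survived, and baseline and induced cleaved-PARP levels vary greatly across cell lines.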

Assays:
Assay in all cases: cleaved PARP positive nuclei fraction relative to DMSO control; melanoma cells; higher = more apoptosis
Settings in all cases: library dose: low library concentration; 72 h
WM115 = system: WM115
WM1716 = system: WM1716
WM1745 = system: WM1745
WM3526 = system: WM3526
WM3619 = system: WM3619
WM451Lu = system: WM451Lu

| Compound | cleaved PARP positive nuclei fraction (WM115) | cleaved PARP positive nuclei fraction (WM1716) | cleaved PARP positive nuclei fraction (WM1745) | cleaved PARP positive nuclei fraction (WM3526) | cleaved PARP positive nuclei fraction (WM3619) | cleaved PARP positive nuclei fraction (WM451Lu) |
| --- | --- | --- | --- | --- | --- | --- |
| CC(=O)O[C@@]12CO[C@@H]1C[C@H](O)[C@@]1(C)C(=O)[C@H](O)C3=C(C)[C@@H](OC(=O)[C@H](O)[C@@H](NC(=O)OC(C)(C)C)c4ccccc4)C[C@@](O)([C@@H](OC(=O)c4ccccc4)[C@H]21)C3(C)C [Docetaxel] + O=C(O)c1ccc(-c2c[nH]c3ncc(-c4ccccc4)cc23)cc1C1CCCC1 [GSK650394] (first compound 0.0001 µM, partner dose 0.16 µM) | 333% | 484% | 167% | 103% | 150% | 139% |
| C[C@]1(O)C[C@@H](c2nc(-c3ccc4ccc(-c5ccccc5)nc4c3)c3c(N)nccn32)C1 + Cn1c(=O)n(-c2ccc(C(C)(C)C#N)cc2)c2c3cc(-c4cnc5ccccc5c4)ccc3ncc21 [NVP-BEZ235] (first compound 0.4 µM, partner dose 0.004 µM) | 214% | 38.3% | 121% | 102% | 112% | 151% |
| CC1(C)CCC(c2ccc(Cl)cc2)=C(CN2CCN(c3ccc(C(=O)NS(=O)(=O)c4ccc(N[C@H](CCN5CCOCC5)CSc5ccccc5)c(S(=O)(=O)C(F)(F)F)c4)cc3)CC2)C1 + C[C@]1(c2nc3c(C(N)=O)cccc3[nH]2)CCCN1 [Veliparib] (first compound 0.4 µM, partner dose 1.4 µM) | 773% | 133% | 1300% | 54.2% | 139% | 55.1% |
| NC1(c2ccc(-c3nc4ccn5c(=O)[nH]nc5c4cc3-c3ccccc3)cc2)CCC1 + CN1CCN(c2ccc3nc(-c4c(N)c5c(F)cccc5[nH]c4=O)[nH]c3c2)CC1 [Dovitinib] (first compound 0.4 µM, partner dose 0.1 µM) | 343% | 156% | 102% | 130% | 108% | 58.5% |
